{"source": "PubChem BioAssay AID493246 (Drosophila RNAi Screening Center, 2011)", "aim": "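Identify essential fly genes by loss of cell viability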 (primary screen)", "cells": "Drosophila Kc and S2R+ cells", "knock-down reagent": "long dsRNA against Drosophila genes", "measurement": "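Raw, unnormalised count of remaining cells in each well; per-plate z-scores of cell number underlie the calls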", "scale": "Kc cell number and S2R+ cell number: higher = more cells remaining", "rule for the call": "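Active when the per-plate z-score of cell number is 3 or more in the direction of fewer cells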", "note": "In all, the deposit lists about 21,000 reagents; shown is a random part of those that have a named target and a result. In the full data, 429 (2%) are marked active. 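Values are raw and not normalised between plates; calls rest on per-plate z-scores that were not deposited.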 A number with no mark means an inactive call. Reagents against one gene are numbered here. Not stated in the record: the amount of reagent, the time to read-out."}
{"gene":"Mis12","dsRNA no.":1,"Kc cell number, rep 1":1.65e6,"Kc cell number, rep 2":1.62e6,"S2R+ cell number, rep 1":1.13e6,"S2R+ cell number, rep 2":1.19e6}
{"gene":"mRpS18B","dsRNA no.":1,"Kc cell number, rep 1":1.30e6,"Kc cell number, rep 2":1.41e6,"S2R+ cell number, rep 1":1.21e6,"S2R+ cell number, rep 2":1.20e6}
{"gene":"ND2 (retired record)","dsRNA no.":1,"Kc cell number, rep 1":1.61e6,"Kc cell number, rep 2":1.63e6,"S2R+ cell number, rep 1":1.12e6,"S2R+ cell number, rep 2":1.28e6}
{"gene":"AGO1","dsRNA no.":1,"Kc cell number, rep 1":1.42e6,"Kc cell number, rep 2":1.44e6,"S2R+ cell number, rep 1":6.86e5,"S2R+ cell number, rep 2":7.85e5}
{"gene":"cyc","dsRNA no.":1,"Kc cell number, rep 1":1.52e6,"Kc cell number, rep 2":1.52e6,"S2R+ cell number, rep 1":1.34e6,"S2R+ cell number, rep 2":1.38e6}
{"gene":"CG18223","dsRNA no.":1,"Kc cell number, rep 1":1.61e6,"Kc cell number, rep 2":1.66e6,"S2R+ cell number, rep 1":1.24e6,"S2R+ cell number, rep 2":1.43e6}
{"gene":"mdlc","dsRNA no.":1,"Kc cell number, rep 1":1.83e6,"Kc cell number, rep 2":1.85e6,"S2R+ cell number, rep 1":1.38e6,"S2R+ cell number, rep 2":1.44e6}
{"gene":"CG8012","dsRNA no.":1,"Kc cell number, rep 1":1.65e6,"Kc cell number, rep 2":1.59e6,"S2R+ cell number, rep 1":1.30e6,"S2R+ cell number, rep 2":1.13e6}
{"gene":"CG44433","dsRNA no.":1,"Kc cell number, rep 1":1.78e6,"Kc cell number, rep 2":1.79e6,"S2R+ cell number, rep 1":1.28e6,"S2R+ cell number, rep 2":1.53e6}
{"gene":"CG44433","dsRNA no.":2,"Kc cell number, rep 1":1.82e6,"Kc cell number, rep 2":1.91e6,"S2R+ cell number, rep 1":1.27e6,"S2R+ cell number, rep 2":1.38e6}
{"gene":"p47","dsRNA no.":1,"Kc cell number, rep 1":1.26e6,"Kc cell number, rep 2":1.40e6,"S2R+ cell number, rep 1":1.12e6,"S2R+ cell number, rep 2":1.16e6}
{"gene":"ND-42","dsRNA no.":1,"Kc cell number, rep 1":1.39e6,"Kc cell number, rep 2":1.48e6,"S2R+ cell number, rep 1":7.89e5,"S2R+ cell number, rep 2":8.37e5}

An excerpt from above, reduced to “S2R+ cell number, rep 2”.
mRpS18B = 1.20e6
ND2 (retired record) = 1.28e6
AGO1 = 7.85e5

The results go on.
{"gene":"CG34109","dsRNA no.":1,"Kc cell number, rep 1":1.57e6,"Kc cell number, rep 2":1.62e6,"S2R+ cell number, rep 1":1.19e6,"S2R+ cell number, rep 2":1.28e6}
{"gene":"CG34109","dsRNA no.":2,"Kc cell number, rep 1":1.58e6,"Kc cell number, rep 2":1.59e6,"S2R+ cell number, rep 1":1.16e6,"S2R+ cell number, rep 2":1.24e6}
{"gene":"CG34109","dsRNA no.":3,"Kc cell number, rep 1":1.47e6,"Kc cell number, rep 2":1.50e6,"S2R+ cell number, rep 1":1.05e6,"S2R+ cell number, rep 2":1.14e6}
{"gene":"Kmn1","dsRNA no.":1,"Kc cell number, rep 1":1.60e6,"Kc cell number, rep 2":1.54e6,"S2R+ cell number, rep 1":9.20e5,"S2R+ cell number, rep 2":9.70e5}
{"gene":"su(f)","dsRNA no.":1,"Kc cell number, rep 1":1.47e6,"Kc cell number, rep 2":1.50e6,"S2R+ cell number, rep 1":1.10e6,"S2R+ cell number, rep 2":1.23e6}
{"gene":"ovo","dsRNA no.":1,"Kc cell number, rep 1":5.86e5,"S2R+ cell number, rep 1":9.29e5}
{"gene":"ovo","dsRNA no.":2,"Kc cell number, rep 1":1.76e6,"Kc cell number, rep 2":1.73e6,"S2R+ cell number, rep 1":1.07e6,"S2R+ cell number, rep 2":1.18e6}
{"gene":"ase","dsRNA no.":1,"Kc cell number, rep 1":1.51e6,"Kc cell number, rep 2":1.57e6,"S2R+ cell number, rep 1":1.08e6,"S2R+ cell number, rep 2":1.16e6}
{"gene":"CG17177","dsRNA no.":1,"Kc cell number, rep 1":1.62e6,"Kc cell number, rep 2":1.76e6,"S2R+ cell number, rep 1":1.25e6,"S2R+ cell number, rep 2":1.38e6}
